# Among all 580,000 compounds or so, about 6,100 (1.1%) were called active. This list was built around the results that the source calls inconclusive (neither active nor inactive); the mix of calls is not that of the screen. Calls follow the shape of the dose curve; as a rule, active = well fitted inhibition curve with a large enough effect; inconclusive = small, poorly fitted or top-dose-only effect, or another doubt; inactive = no such curve, though single readings can be large or run the other way. Potencies beside an inconclusive call are fits to weak or partial responses and may not hold up.
# Chains of the proteins cited; added tags and fusions are not shown. Lines headed by an entry give the natural chain unless they say otherwise; changes in a name come on top.
# UniProt P18054: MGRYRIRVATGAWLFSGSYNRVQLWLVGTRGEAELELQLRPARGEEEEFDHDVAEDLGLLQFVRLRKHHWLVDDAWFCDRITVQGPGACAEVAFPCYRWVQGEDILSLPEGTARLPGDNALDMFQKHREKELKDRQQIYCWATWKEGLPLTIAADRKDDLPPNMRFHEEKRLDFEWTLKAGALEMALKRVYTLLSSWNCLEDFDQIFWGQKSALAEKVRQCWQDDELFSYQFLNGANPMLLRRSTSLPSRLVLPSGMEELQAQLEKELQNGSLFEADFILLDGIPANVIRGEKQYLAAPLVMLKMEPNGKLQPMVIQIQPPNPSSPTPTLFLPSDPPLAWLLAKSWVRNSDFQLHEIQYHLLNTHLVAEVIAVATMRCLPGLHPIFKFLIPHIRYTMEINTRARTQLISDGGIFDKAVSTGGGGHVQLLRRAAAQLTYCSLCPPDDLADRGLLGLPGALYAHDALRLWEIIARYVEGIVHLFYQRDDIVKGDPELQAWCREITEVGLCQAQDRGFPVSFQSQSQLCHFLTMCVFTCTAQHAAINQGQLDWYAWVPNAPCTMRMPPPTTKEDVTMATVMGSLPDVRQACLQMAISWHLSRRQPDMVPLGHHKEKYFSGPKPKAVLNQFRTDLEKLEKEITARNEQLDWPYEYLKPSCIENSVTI
# Molecular target: Polyunsaturated fatty acid lipoxygenase ALOX12 (Homo sapiens) (UniProt P18054)
# Test: Primary qHTS assay for inhibitors of human arachidonate 12S-lipoxygenase (ALOX12): Round 2
# Conditions: purified 12hLO, xylenol orange hydroperoxide absorbance; series mostly up to 108 µM
# Summary of the method: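 Hydroperoxide product was detected by ferrous iron/xylenol orange as the 573 to 405 nm absorbance ratio. Arachidonic acid at 40 uM (final) was turned over for 30 min at room temperature by 150 nM human 12hLO, pH 7.0 Hepes buffer, after 15 min compound preincubation.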
# Potency is read from the fitted curve at half-maximal effect.
row,Structure (SMILES),Potency
1,COC(=O)c1c(NC(=O)c2ccc(Br)s2)sc2c1CCC2,"inconclusive: 44.7 µM [inhibitor, partial curve, poor fit]"
2,COCCn1ncc(N2CCC(NC(=O)C3CCOC3)CC2)cc1=O (stereo unspecified),inactive
3,O=C1/C(=C/c2ccco2)SC(=S)N1c1cccnc1,active: 39.8 µM
4,CCCCOCCCNC(=O)CCC(=O)NCCC1=CCCCC1,inactive
5,Cc1cccc(NC(=O)COC(=O)CCc2nc3ccccc3s2)c1C,inactive
6,CCOc1ccc(S(=O)(=O)Nc2ccc(O)c(Sc3ncn[nH]3)c2)cc1,inactive
7,Cc1cccc2c(=O)cc(C)n(CC(=O)N3CCOCC3)c12,"inconclusive: 44.7 µM [inhibitor, partial curve, poor fit]"
8,CCN1CCN(c2ncc3c(n2)CCN(Cc2ccc(Br)s2)C3)CC1,"inconclusive: 31.6 µM [inhibitor, single point]"
9,CCN(CC)CC1CN(N=Cc2ccc([N+](=O)[O-])o2)C(=O)O1 (stereo unspecified),inactive
10,CCOC(=O)c1cnc2ccc(OC)cc2c1Nc1cccc(Cl)c1,"inconclusive: 89.1 µM [inhibitor, single point]"
11,CCC(C(=O)c1ccc2ncccc2c1)c1ccccc1 (stereo unspecified),"inconclusive: 44.7 µM [inhibitor, partial curve, poor fit]"
12,O=C(CC1SC(=Nc2ccccc2)N(Cc2ccccn2)C1=O)Nc1ccc(Br)cc1 (stereo unspecified),"inconclusive: 56.2 µM [inhibitor, partial curve, poor fit]"
13,CCC(CO)Oc1cc(NC(=O)c2cccc(F)c2)c2ncn(C(C)C)c2c1 (stereo unspecified),"inconclusive: 17.8 µM [inhibitor, partial curve, poor fit]"
14,CCCNC(=O)C(NS(=O)(=O)c1cccc2nsnc12)c1ccccc1 (stereo unspecified),inactive
15,CNC(=O)c1nnsc1S(=O)(=O)c1ccc(Cl)cc1,"inconclusive: 112 µM [inhibitor, partial curve, poor fit]"
16,Cc1ccc(NS(=O)(=O)c2ccc3[nH]c(=O)c(=O)[nH]c3c2)cc1Cl,"inconclusive: 50.1 µM [inhibitor, partial curve, poor fit]"
17,COC(=O)/C(=N\Nc1ccc(Cl)cc1)Sc1nnc(-c2ccc(OC)cc2)n1C,"inconclusive: 50.1 µM [inhibitor, partial curve, poor fit]"
18,O=C1NCc2ccccc2CC12CCN(C/C=C/c1ccccc1)CC2,"inconclusive: 50.1 µM [inhibitor, partial curve]"
19,CCN(CC)c1ccc(NC(=O)CNCc2ccccc2Cl)c(C)c1,"inconclusive: 0.355 µM [inhibitor, full curve, poor fit]"
20,C[C@H](O)[C@@H]1CN2CCc3c([nH]c4ccccc34)[C@@H]2C[C@@H]1N(C)C(=O)Nc1ccc(Br)cc1,"inconclusive: 1.26 µM [inhibitor, full curve, poor fit]"
21,Oc1ccc(/C=N/Nc2ccc(Cl)nn2)cc1O,"inconclusive: 3.55 µM [inhibitor, full curve, poor fit]"
22,Cc1ccc(CNC(=O)c2cc(-c3ccccc3)nn2Cc2cc(C)no2)cc1,"inconclusive: 44.7 µM [inhibitor, partial curve, poor fit]"

row,Structure (SMILES),Potency
1,CC1(C)CC(=O)C(c2c[nH]c3ccccc23)C(=O)C1,"inconclusive: 39.8 µM [inhibitor, partial curve]"
2,CCOC(=O)c1cc(S(=O)(=O)Nc2ccc(OCc3ccccc3)cc2)[nH]n1,active: 8.91 µM
3,Cc1ccc2c(c1)cc(C(=O)Nc1ccccc1)n2C,"inconclusive: 10 µM [inhibitor, full curve, poor fit]"
4,COc1ccc(NC(=O)c2ncn[nH]2)cc1,"inconclusive: 14.1 µM [inhibitor, partial curve, poor fit]"
5,COc1ccc(/C=N/N2CCN(c3ccc(Cl)cc3)CC2)cc1O,"inconclusive: 31.6 µM [inhibitor, partial curve, poor fit]"
6,CC1CCCC(NC(=O)COC(=O)/C=C/c2ccco2)C1C (stereo unspecified),"inconclusive: 44.7 µM [inhibitor, partial curve, poor fit]"
7,O=S(=O)(Oc1ccccc1N1CCCCC1)c1ccccc1,"inconclusive: 112 µM [inhibitor, single point]"
8,CNC(=O)C(C)Sc1nc2ccc(F)cc2c(=O)[nH]1 (stereo unspecified),"inconclusive: 50.1 µM [inhibitor, partial curve, poor fit]"
9,COCCCNc1nc2c(S(=O)(=O)c3cc(C)ccc3C)nnn2c2ccccc12,"inconclusive: 7.94 µM [inhibitor, full curve, poor fit]"
10,O=C1NC(Cc2ccc(O)cc2)c2nc3ccc(Cl)cc3c(=O)n2-c2ccc(Cl)cc21 (stereo unspecified),"inconclusive: 39.8 µM [inhibitor, partial curve, poor fit]"
11,CCOc1ccc(/C=N/NC(=O)CCC(=O)Nc2ccc(F)cc2)cc1,"inconclusive: 141 µM [inhibitor, partial curve, poor fit]"
12,CN(C)c1cccc(C(=O)Nc2cccc(C#N)c2)c1,inactive
13,O=C(c1ccc(Cl)cc1)c1ccc(OCc2cccc3ccccc23)cc1,"inconclusive: 0.398 µM [inhibitor, full curve, poor fit]"
14,O=C1CC2(CCN(C(=O)c3ccc4c(c3)OCO4)CC2)Oc2cc(Cl)ccc21,"inconclusive: 89.1 µM [inhibitor, single point]"
15,O=C(NC1CCN(c2ccccc2)C1=O)c1cccc(Cl)c1 (stereo unspecified),inactive
16,Cc1nc(C(=O)NC2CCCC2)ccc1C#N,"inconclusive: 158 µM [inhibitor, partial curve, poor fit]"
17,O=C(Nc1ccc(F)cc1)c1nc(S(=O)(=O)Cc2ccc(F)cc2)ncc1Cl,"inconclusive: 31.6 µM [inhibitor, partial curve, poor fit]"
18,CCc1ccc(C(=O)N2CCC3(CC2)N(c2ccccc2)C(=O)CS3(=O)=O)cc1,inactive
19,O=C(c1cc[nH]c1C1CCCNC1)N(Cc1ccc(F)cc1)Cc1cccnc1 (stereo unspecified),inactive
20,CCOc1ccc(C(=S)N2CCOCC2)cc1OC,inactive
21,CN1C(=O)C(CC(=O)Nc2ccc(F)cc2)N(CCCc2ccccc2)C1=S (stereo unspecified),"inconclusive: 100 µM [inhibitor, single point]"
22,COC(=O)Cc1ccc(NC(=S)N2CCN(c3cc(Cl)ccc3C)CC2)cc1,"inconclusive: 50.1 µM [inhibitor, partial curve, poor fit]"

# Taken from the results shown (13 entries):
row,Structure (SMILES),Potency
4,COc1ccc(NC(=O)c2ncn[nH]2)cc1,"inconclusive: 14.1 µM [inhibitor, partial curve, poor fit]"
5,COc1ccc(/C=N/N2CCN(c3ccc(Cl)cc3)CC2)cc1O,"inconclusive: 31.6 µM [inhibitor, partial curve, poor fit]"
6,CC1CCCC(NC(=O)COC(=O)/C=C/c2ccco2)C1C (stereo unspecified),"inconclusive: 44.7 µM [inhibitor, partial curve, poor fit]"
7,O=S(=O)(Oc1ccccc1N1CCCCC1)c1ccccc1,"inconclusive: 112 µM [inhibitor, single point]"
8,CNC(=O)C(C)Sc1nc2ccc(F)cc2c(=O)[nH]1 (stereo unspecified),"inconclusive: 50.1 µM [inhibitor, partial curve, poor fit]"
9,COCCCNc1nc2c(S(=O)(=O)c3cc(C)ccc3C)nnn2c2ccccc12,"inconclusive: 7.94 µM [inhibitor, full curve, poor fit]"
10,O=C1NC(Cc2ccc(O)cc2)c2nc3ccc(Cl)cc3c(=O)n2-c2ccc(Cl)cc21 (stereo unspecified),"inconclusive: 39.8 µM [inhibitor, partial curve, poor fit]"
11,CCOc1ccc(/C=N/NC(=O)CCC(=O)Nc2ccc(F)cc2)cc1,"inconclusive: 141 µM [inhibitor, partial curve, poor fit]"
12,CN(C)c1cccc(C(=O)Nc2cccc(C#N)c2)c1,inactive
13,O=C(c1ccc(Cl)cc1)c1ccc(OCc2cccc3ccccc23)cc1,"inconclusive: 0.398 µM [inhibitor, full curve, poor fit]"
14,O=C1CC2(CCN(C(=O)c3ccc4c(c3)OCO4)CC2)Oc2cc(Cl)ccc21,"inconclusive: 89.1 µM [inhibitor, single point]"
15,O=C(NC1CCN(c2ccccc2)C1=O)c1cccc(Cl)c1 (stereo unspecified),inactive
16,Cc1nc(C(=O)NC2CCCC2)ccc1C#N,"inconclusive: 158 µM [inhibitor, partial curve, poor fit]"

# More compounds.

row,Structure (SMILES),Potency
1,Cn1c(=O)c2c(nc(NCc3ccccc3)n2Cc2cccc(Br)c2)n(C)c1=O,inactive
2,CCOc1ccc(OCCSc2nnnn2-c2ccccc2)cc1,"inconclusive: 2.82 µM [inhibitor, full curve, poor fit]"
3,CC(=O)Nc1ccc(C)cc1-c1nc2ccccc2n(CC(=O)Nc2cc(Cl)ccc2C)c1=O,"inconclusive: 56.2 µM [inhibitor, partial curve, poor fit]"
4,COc1ccc(-n2cnc(=S)[nH]c2=S)cc1,active: 22.4 µM
5,CCCN(C)c1ccc(/C=N/NC(=S)Nc2ccc(C)cc2)cc1,"inconclusive: 44.7 µM [inhibitor, partial curve, poor fit]"
6,COc1ccc(NC(=O)c2ccc(-c3c(C)noc3C)c3ccoc23)cn1,"inconclusive: 126 µM [inhibitor, partial curve, poor fit]"
7,O=C(O)CCC(=O)N1N=C(c2cccs2)CC1c1cn(-c2ccccc2)nc1-c1ccccc1 (stereo unspecified),inactive
8,CCOc1ccc2c(c1)c(C(C)=O)c(C)n2-c1cccc(Cl)c1,"inconclusive: 0.282 µM [inhibitor, full curve, poor fit]"
9,CC(C)COC(=O)c1nn(Cc2ccccc2)c(=O)c2ccccc12,"inconclusive: 79.4 µM [inhibitor, partial curve, poor fit]"
10,CN1CCCC1c1nc(C2CN(S(=O)(=O)Cc3ccccc3F)C2)no1 (stereo unspecified),inactive
11,COc1ccc(CC2=C(O)c3ccccc3C(=O)C2=O)cc1,"inconclusive: 44.7 µM [inhibitor, partial curve]"
12,OC(c1ccc(Cl)c(F)c1)c1ncc(-c2ccccc2F)[nH]1 (stereo unspecified),"inconclusive: 56.2 µM [inhibitor, partial curve, poor fit]"
13,CC(C)=CC1C(C(=O)NC2CC(C)(C)NC(C)(C)C2)C1(C)C (stereo unspecified),"inconclusive: 28.2 µM [inhibitor, partial curve]"
14,CC1(C(=O)Nc2ccc(F)cc2F)CCN1C(=O)Cc1ccc(Cl)cc1Cl (stereo unspecified),"inconclusive: 112 µM [inhibitor, single point]"
15,COc1ccc(NC(=O)Cn2c(=O)n(Cc3ccc(C(=O)NCc4ccccc4Cl)cc3)c(=O)c3ccccc32)cc1OC,inactive
16,CCc1ccccc1NC(=O)Cn1ccn2nc3c(c2c1=O)CCCC3,"inconclusive: 79.4 µM [inhibitor, single point]"
17,CC1CCCN(S(=O)(=O)c2cc(C(=O)NCc3ccco3)ccc2Cl)C1 (stereo unspecified),"inconclusive: 79.4 µM [inhibitor, partial curve, poor fit]"
18,C=CCn1c(-c2sc(-c3ccccc3)nc2C)n[nH]c1=S,"inconclusive: 44.7 µM [inhibitor, partial curve, poor fit]"
19,CCCOc1ccc(NC(=O)C(=O)c2c(C)[nH]c3ccccc23)cc1,"inconclusive: 39.8 µM [inhibitor, partial curve, poor fit]"
20,O=S(=O)(c1ccccc1)c1nc(NC2CC2)sc1Cl,inactive
21,CC(=O)Nc1ccc(OCCOc2ccc(/C=C3/C(=N)N4C=CSC4=NC3=O)cc2)cc1,inactive
22,Cc1ccc(NC(=O)CN2C(=O)N/C(=C/c3ccc(C)o3)C2=O)cc1,active: 35.5 µM
